PubChem BioAssay AID1053208, Peter MacCallum Cancer Centre, 2014

- Aim: 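Find knock-downs that sensitise mouse osteosarcoma cells to doxorubicin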 (primary screen)
- Cell system: mouse osteosarcoma cells, early-passage culture from an engineered mouse model of fibroblastic bone tumour
- Reagent: siRNA pool against mouse genes, 40 nM
- Time to read-out: about 120 h (48 h before drug, then 72 h with drug)
- Conditions: doxorubicin 100 nM for 72 h, roughly 30-40% inhibitory dose
- Measurement: 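Viability read as ATP luminescence after 72 h of 100 nM doxorubicin or none, duplicate wells averaged, scaled to non-targeting siRNA, then expressed as robust z-scores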
- Reading the numbers: viability z-score with doxorubicin: higher = more viable cells under doxorubicin; viability z-score without drug: higher = more viable cells with knock-down alone
- Active means: 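Called active if knock-down leaves viability unchanged without drug (z within -2 to 2) but lowers it with doxorubicin (z at or under -2)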
The whole screen tested about 17,000 reagents; this is an unselected part. 788 of them (4.7%) count as active. 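Calls rest on z-score classes alone; an extra cut-off of viability at most 70% of control was not applied to them.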 Further read-outs or replicates are left out here.

gene,combined z-score class,viability z-score with doxorubicin,viability z-score without drug,Outcome
Lama3,no change with or without drug,0,1.69,inactive
Trmt2a,no change with or without drug,0,-1.35,inactive
Rraga,no change with or without drug,-1.57,-0.51,inactive
Papola,no change with or without drug,0.34,1.01,inactive
Or6c2,no change with or without drug,-0.67,-1.52,inactive
Zfp78,no change with or without drug,-0.22,0.51,inactive
Tnfrsf25,no change with or without drug,-1.12,-1.18,inactive
Crygf,no change with or without drug,0.45,0.67,inactive
Slc38a4,no change with or without drug,-0.79,-0.51,inactive
Dusp23,low cell count with doxorubicin only,-2.25,-1.52,active
Inmt,no change with or without drug,-0.22,-0.51,inactive
Padi1,no change with or without drug,-0.79,-0.84,inactive
Tmem125,low cell count without drug only,-0.67,-3.04,inactive
Or10g7,low cell count with doxorubicin only,-2.02,-0.67,active
P2rx6,high cell count with doxorubicin only,2.02,0.34,inactive
Sfrp4,no change with or without drug,0.67,0.34,inactive
Or5w12,no change with or without drug,-1.12,-1.85,inactive
P2rx1,no change with or without drug,0.22,-0.34,inactive
Vstm2a,no change with or without drug,-0.9,0.34,inactive
Lix1,no change with or without drug,-1.35,-1.85,inactive

A stretch taken from the entries so far, as a working copy:
gene,combined z-score class,viability z-score with doxorubicin,viability z-score without drug,Outcome
Dusp23,low cell count with doxorubicin only,-2.25,-1.52,active
Inmt,no change with or without drug,-0.22,-0.51,inactive
